Assay results published in publication PMC9629621.
Results are given in words; binding and its absence hold for the method and conditions named. In cells and extracts the contact can be indirect. Some results given as binding are weak or reduced against the parent protein; the word gives no strength. For some assays here: Where a sequence is shown, tags or fusion partners need not be part of it. Blank lines part the entries; values can stand above or below the substance they belong to.

Sequences of proteins named here, by UniProt entry; tags and fusion partners are left off. A change or cut given only in a name is not applied to a line headed by its entry.
UniProt P10591: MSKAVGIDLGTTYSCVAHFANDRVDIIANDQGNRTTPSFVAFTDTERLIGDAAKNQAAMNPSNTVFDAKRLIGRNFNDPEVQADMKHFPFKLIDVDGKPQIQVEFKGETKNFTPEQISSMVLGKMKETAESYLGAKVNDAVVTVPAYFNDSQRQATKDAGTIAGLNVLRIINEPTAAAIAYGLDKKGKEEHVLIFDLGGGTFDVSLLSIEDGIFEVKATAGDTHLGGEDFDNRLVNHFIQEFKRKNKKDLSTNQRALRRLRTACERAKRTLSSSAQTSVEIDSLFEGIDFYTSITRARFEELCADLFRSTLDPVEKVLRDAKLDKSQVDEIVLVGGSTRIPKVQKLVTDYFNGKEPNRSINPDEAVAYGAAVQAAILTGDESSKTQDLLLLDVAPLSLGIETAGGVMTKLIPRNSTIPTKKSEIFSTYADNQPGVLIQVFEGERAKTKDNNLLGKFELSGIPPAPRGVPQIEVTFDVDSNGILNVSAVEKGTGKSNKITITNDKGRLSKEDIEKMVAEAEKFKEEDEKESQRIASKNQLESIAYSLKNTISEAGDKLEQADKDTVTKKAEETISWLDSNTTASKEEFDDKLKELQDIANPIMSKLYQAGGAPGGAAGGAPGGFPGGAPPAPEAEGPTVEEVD
UniProt Q9H081: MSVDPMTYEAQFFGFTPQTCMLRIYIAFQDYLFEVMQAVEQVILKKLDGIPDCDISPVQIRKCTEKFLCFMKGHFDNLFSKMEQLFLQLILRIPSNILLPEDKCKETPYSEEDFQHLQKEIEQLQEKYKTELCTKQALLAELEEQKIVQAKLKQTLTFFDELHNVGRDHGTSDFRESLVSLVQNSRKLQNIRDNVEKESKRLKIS
UniProt P54198: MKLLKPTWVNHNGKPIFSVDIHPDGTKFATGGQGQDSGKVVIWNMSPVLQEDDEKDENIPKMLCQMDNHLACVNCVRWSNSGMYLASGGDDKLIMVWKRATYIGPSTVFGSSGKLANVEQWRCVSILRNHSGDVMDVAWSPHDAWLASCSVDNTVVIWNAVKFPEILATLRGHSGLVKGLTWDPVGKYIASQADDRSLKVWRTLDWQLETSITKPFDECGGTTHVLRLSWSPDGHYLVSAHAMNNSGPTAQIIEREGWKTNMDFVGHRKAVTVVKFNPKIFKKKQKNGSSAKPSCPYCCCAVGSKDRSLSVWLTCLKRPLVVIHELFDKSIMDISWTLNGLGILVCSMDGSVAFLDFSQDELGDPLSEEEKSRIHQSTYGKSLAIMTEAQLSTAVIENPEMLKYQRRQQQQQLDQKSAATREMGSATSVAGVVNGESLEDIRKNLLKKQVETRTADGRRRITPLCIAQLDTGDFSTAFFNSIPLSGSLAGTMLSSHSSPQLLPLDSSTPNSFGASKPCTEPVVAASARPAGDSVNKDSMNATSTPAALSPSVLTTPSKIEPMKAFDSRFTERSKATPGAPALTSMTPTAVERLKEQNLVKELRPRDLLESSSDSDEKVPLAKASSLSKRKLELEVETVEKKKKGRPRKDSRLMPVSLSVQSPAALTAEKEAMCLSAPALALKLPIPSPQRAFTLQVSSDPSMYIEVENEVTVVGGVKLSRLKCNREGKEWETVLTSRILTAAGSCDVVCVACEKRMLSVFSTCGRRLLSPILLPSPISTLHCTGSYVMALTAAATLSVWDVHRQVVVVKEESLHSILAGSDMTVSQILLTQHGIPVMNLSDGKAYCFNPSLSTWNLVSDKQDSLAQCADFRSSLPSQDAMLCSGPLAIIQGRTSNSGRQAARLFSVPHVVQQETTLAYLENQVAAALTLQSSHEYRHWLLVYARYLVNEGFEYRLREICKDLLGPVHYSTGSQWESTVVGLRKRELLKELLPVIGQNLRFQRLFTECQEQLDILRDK
UniProt P47079: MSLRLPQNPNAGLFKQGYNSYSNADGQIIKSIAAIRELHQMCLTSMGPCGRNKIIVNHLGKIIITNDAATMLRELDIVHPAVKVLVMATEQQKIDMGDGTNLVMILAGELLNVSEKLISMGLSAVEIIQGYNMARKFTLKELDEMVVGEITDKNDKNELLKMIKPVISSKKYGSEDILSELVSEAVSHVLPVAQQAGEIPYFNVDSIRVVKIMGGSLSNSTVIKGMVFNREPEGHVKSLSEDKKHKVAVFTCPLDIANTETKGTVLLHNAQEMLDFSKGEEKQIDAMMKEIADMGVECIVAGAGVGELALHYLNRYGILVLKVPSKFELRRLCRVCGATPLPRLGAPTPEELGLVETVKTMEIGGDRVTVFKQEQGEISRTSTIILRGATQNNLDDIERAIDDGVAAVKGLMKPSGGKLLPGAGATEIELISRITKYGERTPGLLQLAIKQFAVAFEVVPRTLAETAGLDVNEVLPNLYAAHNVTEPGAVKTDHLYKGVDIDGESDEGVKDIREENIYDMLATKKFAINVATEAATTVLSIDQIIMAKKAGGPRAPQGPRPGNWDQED
UniProt P11142: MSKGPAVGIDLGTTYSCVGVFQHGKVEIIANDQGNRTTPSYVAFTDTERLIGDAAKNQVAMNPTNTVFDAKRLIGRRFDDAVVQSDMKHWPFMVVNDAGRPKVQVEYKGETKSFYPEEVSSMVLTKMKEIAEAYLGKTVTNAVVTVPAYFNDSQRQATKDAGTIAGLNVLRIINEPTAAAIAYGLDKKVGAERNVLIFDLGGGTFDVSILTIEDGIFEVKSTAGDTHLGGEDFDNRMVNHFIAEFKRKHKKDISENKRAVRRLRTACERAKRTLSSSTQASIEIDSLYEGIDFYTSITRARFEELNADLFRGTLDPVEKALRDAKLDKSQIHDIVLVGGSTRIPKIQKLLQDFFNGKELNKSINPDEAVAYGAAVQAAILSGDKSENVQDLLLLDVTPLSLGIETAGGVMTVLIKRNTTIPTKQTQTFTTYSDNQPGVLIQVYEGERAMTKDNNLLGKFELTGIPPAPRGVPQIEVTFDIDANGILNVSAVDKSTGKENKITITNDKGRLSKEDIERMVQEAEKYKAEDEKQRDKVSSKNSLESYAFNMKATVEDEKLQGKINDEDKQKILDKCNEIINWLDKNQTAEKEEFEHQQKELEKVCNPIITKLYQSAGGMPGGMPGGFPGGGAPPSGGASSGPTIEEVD
UniProt Q92598: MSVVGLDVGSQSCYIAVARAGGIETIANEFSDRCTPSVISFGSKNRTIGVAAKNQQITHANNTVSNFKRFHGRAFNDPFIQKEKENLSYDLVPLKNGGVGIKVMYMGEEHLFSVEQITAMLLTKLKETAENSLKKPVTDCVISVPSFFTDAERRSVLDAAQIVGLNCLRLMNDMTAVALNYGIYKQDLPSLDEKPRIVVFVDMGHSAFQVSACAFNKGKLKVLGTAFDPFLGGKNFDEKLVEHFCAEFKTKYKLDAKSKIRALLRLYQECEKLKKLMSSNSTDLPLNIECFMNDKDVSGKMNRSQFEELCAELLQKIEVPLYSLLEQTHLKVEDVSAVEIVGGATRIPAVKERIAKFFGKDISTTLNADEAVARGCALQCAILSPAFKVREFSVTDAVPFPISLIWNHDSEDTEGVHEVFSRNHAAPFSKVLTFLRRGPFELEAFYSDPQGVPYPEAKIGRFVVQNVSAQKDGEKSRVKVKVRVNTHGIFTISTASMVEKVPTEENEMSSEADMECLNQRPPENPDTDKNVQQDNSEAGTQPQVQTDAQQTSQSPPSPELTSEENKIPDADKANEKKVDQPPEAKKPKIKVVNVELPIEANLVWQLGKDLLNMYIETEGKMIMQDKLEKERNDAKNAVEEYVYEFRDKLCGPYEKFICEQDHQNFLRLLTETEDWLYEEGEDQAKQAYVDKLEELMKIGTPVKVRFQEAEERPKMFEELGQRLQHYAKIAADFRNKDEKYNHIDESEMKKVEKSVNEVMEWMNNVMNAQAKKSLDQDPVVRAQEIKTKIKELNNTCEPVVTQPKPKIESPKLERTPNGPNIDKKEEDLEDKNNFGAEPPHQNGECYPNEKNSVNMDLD

What was measured:
[1] = target: HIS-tagged Ssa1 (yeast Hsp70) (S. cerevisiae) (UniProt P10591); experiment: cross-linking; XL-MS: about 150 ug of His-Ssa1 complex purified from yeast (His-Trap), cross-linked with 5 mM DSSO, room temperature, 1 h; trypsin digest, LC-MS with MS2/MS3; filtered for cross-linked peptides with at least one Ssa1 peptide
Mis12-GFP = Mis12-GFP (UniProt Q9H081); experiment: co-IP; HEK293 cells transfected with Mis12-GFP, 24 h; complexes isolated on GFP-TRAP beads; western blot
HA-HIRA (human) = HA-HIRA (human) (UniProt P54198); experiment: co-IP; HEK293 cells transfected with HA-HIRA, 24 h; complexes purified on HA-magnetic beads; western blot
FLAG-Lonp-1 = target: T1, FLAG-Lonp-1 (UniProt P36776); experiment: co-IP; HEK293 cells transfected with FLAG-Lonp-1, 24 h; complexes isolated on FLAG Dynabeads; western blot
T1 sequence: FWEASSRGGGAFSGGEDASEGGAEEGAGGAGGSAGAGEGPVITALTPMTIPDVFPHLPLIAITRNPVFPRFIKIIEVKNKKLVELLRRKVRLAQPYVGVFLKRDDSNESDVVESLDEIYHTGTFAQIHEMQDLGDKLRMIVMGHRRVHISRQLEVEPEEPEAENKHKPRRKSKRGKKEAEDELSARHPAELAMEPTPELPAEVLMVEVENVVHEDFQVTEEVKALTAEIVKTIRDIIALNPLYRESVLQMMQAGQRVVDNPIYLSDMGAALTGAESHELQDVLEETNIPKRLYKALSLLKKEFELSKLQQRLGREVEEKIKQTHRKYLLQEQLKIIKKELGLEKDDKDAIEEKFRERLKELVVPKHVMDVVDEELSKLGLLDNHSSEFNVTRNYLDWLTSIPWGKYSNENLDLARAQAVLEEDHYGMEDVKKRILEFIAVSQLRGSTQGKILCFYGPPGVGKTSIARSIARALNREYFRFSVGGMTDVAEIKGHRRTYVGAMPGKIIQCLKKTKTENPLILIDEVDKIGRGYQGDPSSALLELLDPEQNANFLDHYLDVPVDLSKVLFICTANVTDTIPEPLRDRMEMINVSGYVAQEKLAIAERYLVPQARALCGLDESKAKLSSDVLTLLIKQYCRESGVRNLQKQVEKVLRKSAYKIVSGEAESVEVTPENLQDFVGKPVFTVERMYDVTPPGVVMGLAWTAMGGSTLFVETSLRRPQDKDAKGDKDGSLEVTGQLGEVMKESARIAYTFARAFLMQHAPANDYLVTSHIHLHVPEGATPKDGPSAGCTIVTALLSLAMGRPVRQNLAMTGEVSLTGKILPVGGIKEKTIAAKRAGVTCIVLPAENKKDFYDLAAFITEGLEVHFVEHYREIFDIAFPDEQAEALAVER

[2] = target: Hir2 (immunoprecipitated from yeast) (S. cerevisiae) (UniProt P32480); experiment: co-IP; Co-IP of Hir1 and Hir2 from yeast followed by immunoblotting for chaperones (Fig 4C); beads and tag not told for this panel
[3] = target: Cct8 with an HA epitope tag at the carboxy terminus (S. cerevisiae) (UniProt P47079); experiment: co-IP; yeast extract (200 ug) on anti-HA magnetic beads, 4°C, 30 min; 50 mM Na-phosphate pH 8.0, 300 mM NaCl, 0.01% Tween-20; western blot
[4] = target: T2, Pcl7 with an HA epitope tag at the carboxy terminus (S. cerevisiae) (UniProt P40186); experiment: as above
T2 sequence: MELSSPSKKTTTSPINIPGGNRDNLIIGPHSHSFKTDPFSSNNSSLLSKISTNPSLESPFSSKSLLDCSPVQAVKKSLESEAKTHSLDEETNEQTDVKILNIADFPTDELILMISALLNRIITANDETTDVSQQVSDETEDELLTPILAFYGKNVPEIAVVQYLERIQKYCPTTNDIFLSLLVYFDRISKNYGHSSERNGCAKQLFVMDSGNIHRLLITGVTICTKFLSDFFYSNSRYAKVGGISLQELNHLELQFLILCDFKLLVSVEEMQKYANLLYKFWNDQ

[5] = target: T3, Sse1 with an HA epitope tag at the carboxy terminus (S. cerevisiae) (UniProt P32589); experiment: as above
T3 sequence: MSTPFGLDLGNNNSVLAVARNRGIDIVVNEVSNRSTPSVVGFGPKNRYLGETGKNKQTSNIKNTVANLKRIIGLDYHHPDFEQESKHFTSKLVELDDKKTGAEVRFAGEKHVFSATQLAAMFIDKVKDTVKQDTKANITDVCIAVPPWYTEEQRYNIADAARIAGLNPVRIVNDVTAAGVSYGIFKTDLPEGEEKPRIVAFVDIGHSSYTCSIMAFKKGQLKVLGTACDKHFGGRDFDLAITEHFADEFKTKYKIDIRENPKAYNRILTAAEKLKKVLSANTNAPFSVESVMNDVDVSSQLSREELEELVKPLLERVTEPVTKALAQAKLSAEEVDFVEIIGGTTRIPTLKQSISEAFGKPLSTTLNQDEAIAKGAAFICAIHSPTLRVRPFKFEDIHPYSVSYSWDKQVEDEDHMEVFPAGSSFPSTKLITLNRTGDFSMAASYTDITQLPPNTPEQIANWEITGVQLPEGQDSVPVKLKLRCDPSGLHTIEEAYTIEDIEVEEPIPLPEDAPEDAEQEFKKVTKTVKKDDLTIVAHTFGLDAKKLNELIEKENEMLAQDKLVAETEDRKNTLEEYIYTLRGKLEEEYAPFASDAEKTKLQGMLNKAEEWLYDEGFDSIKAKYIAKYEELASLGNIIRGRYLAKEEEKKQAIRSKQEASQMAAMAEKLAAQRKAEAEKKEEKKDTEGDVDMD

[6] = target: T4, Ura8 with an HA epitope tag at the carboxy terminus (S. cerevisiae) (UniProt P38627); experiment: as above
T4 sequence: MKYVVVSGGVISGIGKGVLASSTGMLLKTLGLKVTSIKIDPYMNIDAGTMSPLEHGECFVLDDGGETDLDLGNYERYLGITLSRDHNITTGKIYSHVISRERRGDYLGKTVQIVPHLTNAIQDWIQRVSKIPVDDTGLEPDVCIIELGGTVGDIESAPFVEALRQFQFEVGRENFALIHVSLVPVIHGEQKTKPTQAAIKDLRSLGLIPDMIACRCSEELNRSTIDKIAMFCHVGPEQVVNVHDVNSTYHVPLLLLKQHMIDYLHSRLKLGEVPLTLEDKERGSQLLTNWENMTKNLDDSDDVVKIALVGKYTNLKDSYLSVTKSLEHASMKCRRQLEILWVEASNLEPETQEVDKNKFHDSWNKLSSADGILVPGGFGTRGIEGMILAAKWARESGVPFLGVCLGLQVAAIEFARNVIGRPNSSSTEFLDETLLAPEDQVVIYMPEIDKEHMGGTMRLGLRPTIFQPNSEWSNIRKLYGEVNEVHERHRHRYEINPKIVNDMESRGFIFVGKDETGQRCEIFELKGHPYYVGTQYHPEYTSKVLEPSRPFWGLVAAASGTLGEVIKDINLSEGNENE

[7] = target: T5, Mtw1-FLAG (S. cerevisiae) (UniProt P39731); experiment: co-IP; yeast extract (200 ug) on anti-Flag M2 magnetic beads, 4°C overnight; 50 mM Na-phosphate pH 8.0, 300 mM NaCl, 0.01% Tween-20; eluted with 3x FLAG peptide; western blot
T5 sequence: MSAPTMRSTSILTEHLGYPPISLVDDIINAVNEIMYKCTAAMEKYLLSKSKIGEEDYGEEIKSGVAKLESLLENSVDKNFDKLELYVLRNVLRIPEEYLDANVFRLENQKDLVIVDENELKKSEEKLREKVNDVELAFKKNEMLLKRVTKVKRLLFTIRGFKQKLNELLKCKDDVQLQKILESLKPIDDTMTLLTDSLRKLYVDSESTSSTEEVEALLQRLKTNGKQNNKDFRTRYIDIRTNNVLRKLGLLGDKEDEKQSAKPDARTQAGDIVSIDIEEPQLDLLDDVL

[8] = target: FLAG-Ssa1 V435F (substrate-binding deficient mutant) (S. cerevisiae) (UniProt P10591); experiment: as above

Substance: DNAJA1 (from UniProt P31689 1-397)
binding (Mis12-GFP): binds | binding (HA-HIRA (human)): binds | binding (FLAG-Lonp-1): binds

Substance: Hir2 (endogenous, HIR complex component) (from UniProt P32480 1-875)
binding [1]: binds

Substance: Hsc70 (from UniProt P11142 1-646)
binding (Mis12-GFP): binds | binding (HA-HIRA (human)): binds | binding (FLAG-Lonp-1): binds

Substance: Hsp82 (from UniProt P02829 1-709)
binding [2]: binds | binding [3]: binds | binding [4]: binds | binding [5]: binds | binding [6]: binds | binding [7]: binds

Substance: Ssa1 wild type, epitope-tagged (FLAG-Ssa1, GFP-Ssa1, HA-Ssa1) (from UniProt P10591 1-642)
binding [8]: binds

Continued, values first:

binding [1]: binds
Substance: Cct8 (endogenous) (from UniProt P47079 1-568)

binding (Mis12-GFP): binds | binding (HA-HIRA (human)): binds
Substance: Hsp110 (from UniProt Q92598 1-858)
